From PubChem BioAssay AID1794845 (National Center for Advancing Translational Sciences (NCATS), 2023)
The whole screen tested about 6,900 compounds, of which fewer than 10 were called active. The call rests on the fitted dose curve; in most records, active means well fitted curve in the direction sought with a large enough effect; inconclusive means small, poorly fitted or top-dose-only effect, or another doubt; inactive means no such curve, though single readings can be large or run the other way. The list shows a part of the results.

Sequences of proteins named here, by UniProt entry; tags and fusion partners are left off. A change or cut given only in a name is not applied to a line headed by its entry.
UniProt C7C422: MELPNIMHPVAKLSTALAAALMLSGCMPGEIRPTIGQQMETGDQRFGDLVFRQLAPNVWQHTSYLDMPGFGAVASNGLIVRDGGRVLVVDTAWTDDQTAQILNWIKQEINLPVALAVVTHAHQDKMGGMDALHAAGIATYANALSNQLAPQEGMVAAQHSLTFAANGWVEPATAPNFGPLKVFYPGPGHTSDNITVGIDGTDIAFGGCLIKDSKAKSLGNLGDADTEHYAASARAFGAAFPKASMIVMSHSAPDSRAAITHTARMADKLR

Molecular target: Metallo-beta-lactamase type 2 (Klebsiella pneumoniae) (UniProt C7C422)
Assay: qHTS to identify inhibitors of the New Delhi Metallo-beta-lactamase (NDM): primary screen against the NCATS Gemini Collection; further: % of control where 0% means no effect
Conditions: NDM-1 enzyme, meropenem hydrolysis, absorbance 300 nm; at 38.4 µM (top of the series) unless noted
Procedure, shortened: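 NDM-1 at 2 nM final in 50 mM HEPES pH 7.0, 1 uM ZnSO4, 0.01% Tween20, preincubated >30 min with compound. Meropenem 50 uM final added; absorbance at 300 nm after 30 min.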

Activity % (negative = inhibition), inactive:
CCCS(=O)(=O)N1CCc2nn(CC3CC3)c(=O)n2CC1 -1.69%, Cn1cc(S(=O)(=O)NC2CC(c3cc(N4CCC(O)C4)ncn3)C2)cn1 (centres undefined) 0.667%, CN1CCOc2c(C(=O)NCc3cnn(C)c3)cc(-c3ccc([S+](C)(=O)[O-])cc3)cc21 11.8% [at 57.5 µM], Cc1ccc(CN2CCCc3nc(C)nc(-c4ccc(O)cc4)c3C2)cc1 0.551%, Cc1ncoc1C(=O)N1CCC2(CC1)CC(N(Cc1ccccc1)C1CC1)CCO2 (centres undefined) -3.52%, O=C(NCCCc1ccccc1F)[C@H]1CCC[C@@H](O)C1 -0.311%, CCCN(CC1CC1)C(=O)[C@@H]1COCC(=O)N1Cc1ccccc1 11.1%, CC1(CNCc2ccccc2)COc2ccc(C(=O)NCc3cccs3)cc2N1 (centres undefined) 9.32% [at 57.5 µM], COCc1nnc2n1CCC(NC(=O)Cc1c[nH]c3ccccc13)CC2 (centres undefined) 0.638%, N#Cc1cccnc1-c1cccc(C(=O)NCCN[S+](=O)([O-])c2cccc(C(F)(F)F)c2)c1 -0.199%, O=C(N[C@@H]1CCN(C(=O)c2n[nH]c3ccccc23)C[C@H]1O)c1cccnc1 2.74%, O=C(C[C@@H]1CCNC[C@@H]1Cc1cc(CSc2ccccc2)on1)N1CCN(c2ccccc2)CC1 2.61%, CO[C@H]1C(=O)N(C2CCN(C(=O)c3ccnn3C)CC2)[C@H]1c1ccncc1 2%, CC(C)(O)CCc1ccc(CN2CCN([C@H]3CCCC[C@@H]3O)CC2)cc1 -12.4%, Nc1nc2c(c(N3CC[C@@H](O)C3)n1)CCN(C(=O)[C@H]1CCCO1)CC2 18.3%, COc1cccc(Nc2cccc(CN3CCCC(C)(NC(C)=O)C3)c2)c1 (centres undefined) 15.3% [at 57.5 µM], O[C@@H]1C[C@@H](c2nc(-c3cnccn3)no2)N(Cc2cccs2)C1 3.47% [at 57.5 µM], Cc1ccccc1CNC(=O)c1cc2cn(C(C)C)cc2s1 -1.18%, O=c1c2nc(NCCOc3ccccc3)ccc2ncn1Cc1ccccc1 5.47% [at 57.5 µM], CCC[C@@H]1CN(C(=O)c2ccccc2-c2ccccc2F)C[C@H]1NC(C)=O -2.99%, Cc1cc(C)nc(N2C[C@H]3OC(=O)N(CCc4cccc(Cl)c4)[C@H]3C2)n1 4.92%, NC(=O)[C@H](Cc1ccc(O)cc1)NC(=O)[C@@]1(O)C[C@@H](O)[C@H](O)[C@@H](NC(=O)c2ccc(F)c(Cl)c2)C1 8.28%, CCN(CC)C(=O)[C@@H]1CCC[C@@H](NCc2cccc(OC)c2)CN(C)C(=O)C1 -4.84% [at 57.5 µM], Cc1onc(C(=O)NCCc2noc(-c3ccncc3)n2)c1Cn1cc(Cl)cn1 -2.99%, NC1CC(c2cc(N3CCN(c4nnc(C(F)(F)F)s4)CC3)ncn2)C1 (centres undefined) 9.09%, CCNC(=O)[C@@H]1CCCN1C(C)(C)C(=O)NC 26.6% [at 77.1 µM], CCc1nccc(CN2CCCC(CC3CC3)(C(=O)O)C2)n1 (centres undefined) 11.6%, COCCN1CCCCCC(O)c2cc(C(=O)NCc3ccc(F)cc3)ccc21 (centres undefined) -7.68%, CC(C)n1cc(CN2CCC(CO)(Cc3ccccc3Cl)CC2)cn1 -1.51%, O=C(Cc1cccc(F)c1)NCc1nnc2cc(-c3nc(C4CC4)no3)ccn12 -0.331%, O=C(NC[C@H]1OC[C@@H](N(Cc2cnc[nH]2)Cc2cnc[nH]2)[C@@H]1O)C1CCCC1 113% [at 57.5 µM], COc1ccccc1-n1cc(C(=O)N[C@H](c2cnn(C)c2)C2CC(O)C2)cn1 (some centres undefined) 2.8%, Cc1nc(C(C)C)sc1C(=O)N1C[C@@H](C)[C@](O)(C2CCC2)C1 0.164%, COc1ccc(N2CC(COc3ccccc3)Oc3nc(C)ccc3C2=O)cc1 (centres undefined) -1.07% [at 16.1 µM], COc1ccc(-c2cccc(C(=O)NC3CCOCC3)c2)nn1 15.2% [at 57.5 µM], CN(C)[C@@H]1C[C@@H](CO)N(C(=O)c2csc3nc(-c4ccccc4Cl)cn23)C1 14.8%, COCCN1CCC(N2CCN(C(=O)c3ccsc3)CC2)C1=O (centres undefined) 17.5%, O=C(c1ccc(F)cc1)N1CCCCCC1c1nnc(-c2ccccc2)o1 (centres undefined) 0.811%, CCc1ccc(N2CC(c3noc(-c4sccc4C)n3)CC2=O)cc1 (centres undefined) -0.277%, O=C(OCc1ccccc1)N1CCOCC12CCN(Cc1c[nH]c3ccccc13)CC2 1.9% [at 57.5 µM], Cc1cccc(CN2CCCC(C(=O)Nc3cccc(-n4cccn4)c3)C2)n1 (centres undefined) 0.861%, COc1ccc(CCc2nc3nccc(-c4ccncc4)n3n2)cc1 7.82%, CCNC(=O)O[C@H]1COCCN(c2nc3ccccc3o2)C1 0.369% [at 57.5 µM], COc1ccc(S(=O)(=O)NC[C@H]2Cn3c(-c4ccc(Cl)cc4)cnc3CO2)cc1 7.08% [at 57.5 µM], O=C(CCn1cncn1)N1CCC2(CCC(=O)N(CCc3ccncc3)C2)CC1 1.56%, CC(=O)N1CCC(C(=O)N2CCCC(c3nc4ncccc4[nH]3)C2)CC1 (centres undefined) 1.14%, O=C(CCc1c[nH]c2ccccc12)NC1CCN(c2ccc(=O)[nH]n2)CC1 12.2%, O=C1CC(c2noc(Cc3ccc(F)cc3)n2)CN1c1ccc(F)cc1 (centres undefined) -1.31%, COc1ccc(CNc2cc3c(cn2)CN(C)CCN3)cc1OC 26.7% [at 57.5 µM], COCCN1Cc2nc(NCc3ccccc3)ccc2OCC1=O 24.4% [at 57.5 µM], COc1ccc(CC(=O)N2Cc3ccccc3CC23CCCN(C(=O)CN)C3)cc1 (centres undefined) -8.97%, COC[C@@H]1CN(c2ncccn2)C[C@H]1C(=O)NCc1ccccc1OC 0.757%, Cc1c(CC(=O)N(C)C(C)C)c2c(n1Cc1ccccc1F)CCCC2=O 67%, COc1ccc(-c2nc(C3CC(=O)N(c4ccc(C)cc4)C3)no2)cn1 (centres undefined) -0.208%, O=C(CC1=CCCCC1)N1CC(F)(F)C[C@H]1c1nc(C2CC2)no1 -9.55%, Cc1cccc2[nH]c(CN(C)C(=O)c3ccc(CCC(C)(C)O)cc3)nc12 -1.02%, O=C(N[C@H]1CCOC[C@H]1C1CCOCC1)c1ccoc1 -1.18%, COc1ccc(C(=O)N2CCC(C3CCN(S(C)(=O)=O)CC3)C2)cc1OC (centres undefined) 0.0866%, O=C(NC1CCCCCC1)c1cc(-c2cc(Cl)cc(Cl)c2)c2nncn2n1 19.8%, Cc1cnc(-c2ccccc2)n1C1CCN(C(=O)c2ccco2)CC1 7.9%, Cc1cnc(C(=O)N2CCCCCNC(=O)[C@@H]3CCC[C@@H]32)cn1 10%, CN(Cc1ccccc1CN1CCCC1)C(=O)C1CC2(CCNCC2)CN1C (centres undefined) -6.44%, CCN1CC(c2ccccc2)CC2(CCN(C(=O)c3ccon3)CC2)C1 (centres undefined) -4.38%, Cc1cc(C(=O)N2CCCC(C(=O)Nc3cccc(-c4cc5ccccc5[nH]4)c3)C2)nn1C (centres undefined) 24.3%, COC(=O)N1CCCCC12Cc1ccccc1NC2=O (centres undefined) 9.48% [at 57.5 µM], O=C(C1CCCN(C2CCN(c3ncccn3)CC2)C1)N1CCOCC1 (centres undefined) 10.9%, Cn1ncc2c(C(=O)N3CCC(C#N)CC3)cc(-c3cc(Cl)cc(Cl)c3)nc21 25.5%, COc1ccccc1-c1cccc(CN2CCC(NC(C)=O)CC2)c1 11%, Cc1cnc(CC2CCN(C(=O)Nc3ccc4c(c3)OCCO4)C2)n1C1CC1 (centres undefined) 2.21%, Cc1cc(S(=O)(=O)N2CCN(C3CCN(Cc4ccccn4)C3=O)CC2)ccc1Cl (centres undefined) 1.41%, COc1cccc(CC(=O)N2CCC(CC3CC3)(NC(=O)c3ccccc3)CC2)c1 0.0723%, Cc1ccc(-c2noc(CCCC(=O)N3CCC(CCOc4ccccc4F)C3)n2)cc1 (centres undefined) 1.39%, O=C([C@@H]1C[C@H](F)CN1C(=O)c1ccc(Cl)cc1)N1CCCCC1 -1.46%, CC(=O)N1CC2(CCN(C3CCCCC3)CC2)Cc2ccccc21 -3.71%, O=S(=O)(c1ccccc1)N1CCCC(Cc2noc(-c3ccncc3)n2)C1 (centres undefined) 10.9%, CC1=NOC2(CCN(C(=O)c3ccccc3)C2)C1 (centres undefined) 2.48% [at 57.5 µM], Cc1nc(N2CCCCC2)n(CC(=O)Nc2ccc(Br)cc2)c(=O)c1C 13.5%, CCc1ccc(NC(=O)N2CCN(C)C3(CCC(=O)N(C)CC3)C2)cc1 (centres undefined) -0.186%, Cc1occc1C(=O)N1CCC2(CC1)N=C(CC(C)C)NC2=O -2.45%, Cc1ccccc1OCC(=O)Nc1cccn2nc(-c3cccnc3)nc12 -4.3%, CC(C)Cc1cnc(C2CCCN(C(=O)OC(C)(C)C)C2)[nH]1 (centres undefined) -4.47% [at 57.5 µM], Cc1cccc(C(=O)N2CCCC(c3noc(-c4cc5c(=O)[nH]c(C)cn5n4)n3)C2)c1 (centres undefined) 14.5%, Cc1nc(N2CCC(NC(=O)C3CCCCC3)CC2)cc(C(F)(F)F)n1 9.98%, C[S+](=O)([O-])CCn1ncc2cc(OCc3cccc(-c4cccc(F)c4)c3)ccc21 0.0334% [at 57.5 µM]
